Data reported in patent US20090180995A1, “NOVEL ANTICOAGULANT POLYPEPTIDES AND COMPLEX” (National University of Singapore, priority 2005, published 2009).
No constants are given. Whether binding was seen depends on the method and setting. Some binding calls cover weakened binding; strength is not graded here.

Key:
[1] = molecular target: T1, hemextin B (Hemachatus haemachatus (African Ringhals cobra)); experiment: ITC
T1 sequence: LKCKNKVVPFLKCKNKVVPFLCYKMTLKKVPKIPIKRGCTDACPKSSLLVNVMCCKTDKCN

[2] = molecular target: T1, hemextin B (Hemachatus haemachatus (African Ringhals cobra)); experiment: GEMMA molecular diameter
[3] = molecular target: T1, hemextin B (Hemachatus haemachatus (African Ringhals cobra)); experiment: gel filtration, Superdex 30
[4] = molecular target: T1, hemextin B (Hemachatus haemachatus (African Ringhals cobra)); experiment: far UV CD titration of hemextin A with hemextin B
[5] = molecular target: T1, hemextin B (Hemachatus haemachatus (African Ringhals cobra)); experiment: SEC in Tris-HCl with glycerol; dimer peak analysed by ESI-MS and HPLC

Measured: binding

B1: hemextin A (protein)
chain: LKCKNKLVPFLSKTCPEGKNLCYKMTMLKMPKIPIKRGCTDACPKSSLLVKVVCCNKDKCN
binds: all assays above
